Results from PubChem BioAssay AID1471 (National Center for Advancing Translational Sciences (NCATS), 2008).
In all, about 230,000 compounds went through this assay and about 310 (0.13%) were called active. Inconclusive means that the source gave no clear call. Such entries were picked first, then a sample of the others. Calls follow the shape of the dose curve; as a rule, active = well fitted activation curve with a large enough effect; inconclusive = small, poorly fitted or top-dose-only effect; inactive = no such curve, though single readings can be large or run the other way. Potencies beside an inconclusive call are fits to weak or partial responses and may not hold up.

Assay: qHTS Multiplex Assay to Identify Dual Action Probes in a Cell Model of Huntington: Cytoprotection (ATP); also: nearly all actives have a fitted effect of over 45% in size;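 as to cytoprotection (ATP increase): toxic huntingtin expression switched on by the ecdysone agonist tebufenozide; % of control where 0% means no effect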
Conditions: PC12 HTT-Q103 induced, ATP luminescence, 40 h; cytoprotection (ATP increase): at 56.4 µM (top of the series) unless noted
How it was run: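 Quantitative HTS on tebufenozide-induced (100 nM) PC12 cells expressing HTTQ103 exon 1–GFP; compounds tested as a concentration series; survival measured via cellular ATP.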
Potency is read from the fitted curve at half-maximal effect.

Row | SMILES | Potency | cytoprotection (ATP increase)
1 | COc1cccc(CC(NC(C)=O)C(=O)NC2CCN(S(=O)(=O)c3ccc(C)cc3)CC2)c1OC (centres undefined) | inconclusive: 2.82 µM [activator, single point] | –
2 | COc1ccc(NS(=O)(=O)c2cc(NC(=O)C3CC3)ccc2N2CCCCC2)cc1 | – | inactive: -43.7%
3 | Cc1nnc(NC(=O)CSc2nnnn2Cc2ccccc2)s1 | inconclusive: 1.26 µM [activator, single point] | –
4 | COc1cccc(CC(=O)n2nc(N)c3cc4ccc(OC)cc4nc32)c1 | inconclusive: 8.91 µM [activator, partial curve] | –
5 | CCC(C)C1NC(=O)C(Cc2ccc(O)cc2)NC(=O)C(N)CSSCC(C(=O)N2CCCC2C(=O)NC(CC(C)C)C(=O)NCC(N)=O)NC(=O)C(CC(N)=O)NC(=O)C(CCC(N)=O)NC1=O (centres undefined) | – | inactive: 8.11%
6 | O=[N+]([O-])c1ccc(/C=N/Nc2nc(N3CCOCC3)nc(N3CCOCC3)n2)cc1 | inconclusive: 3.98 µM [activator, single point] | –
7 | O=C(/C(=C/O)N=Nc1ccccc1)c1ccncc1 | inconclusive: 22.4 µM [activator, partial curve] | –
8 | Cn1c(SCC(=O)Nc2ccc3nc(SCC(=O)N4CCCC4)sc3c2)nnc1-c1ccccc1 | – | inactive: -15.9%
9 | Cc1ccc(Nc2cnn(C34CC5CC(CC(CC(=O)O)(C5)C3)C4)c(=O)c2Cl)c(Cl)c1 | – | inactive: -22.2%
10 | Cc1ccc(C(=O)OCC(=O)NCc2cccs2)cc1S(=O)(=O)N1CCOCC1 | inconclusive: 0.562 µM [activator, single point] | –
11 | CCCOc1ccc(S(=O)(=O)NCCCN2CCOCC2)c2ccccc12 | inconclusive: 0.501 µM [activator, full curve, poor fit] | –
12 | Cc1csc2ncnc(N3CCN(C(=O)Nc4ccc(OC(F)(F)F)cc4)CC3)c12 | – | inactive: 8.79% [at 10 µM]
13 | CCc1ccccc1OCC(=O)OCC(=O)c1c(N)n(C)c(=O)n(C)c1=O | inconclusive: 5.62 µM [activator, single point] | –
14 | O=C(O)CCC(=O)Nc1ccccc1Oc1ccccc1 | inconclusive: 35.5 µM [activator, partial curve, poor fit] | –
15 | Cc1cccc(N(C)C(=S)Oc2ccc3ccccc3c2)c1 | inconclusive: 0.891 µM [activator, full curve, poor fit] | –
16 | COC(=O)/C=C1\NC(=O)C(C)S1 (centres undefined) | – | inactive: -16.6%
17 | Cc1cc(C)c(C(=O)CSC2=NC(N)=C(C#N)C3(CCCCC3)C2C(N)=O)cc1C (centres undefined) | inconclusive: 35.5 µM [activator, single point] | –
18 | CCN(CC)C(=O)Cn1cc(S(=O)(=O)CC(=O)N2CCCCCC2)c2ccccc21 | inconclusive: 1 µM [activator, single point] | –
19 | O=C(NCC1CCCO1)C(c1ccncc1)N(Cc1cccs1)C(=O)Cn1nnc(-c2ccc(F)cc2)n1 (centres undefined) | – | inactive: 28.5% [at 10 µM]
20 | Cc1ccc(C(=O)Cn2nnc3ccccc32)cc1 | inconclusive: 0.631 µM [activator, single point] | –
21 | Clc1nn2cnnc2c2ccccc12 | inconclusive: 0.447 µM [activator, partial curve] | –
22 | O=C(C1CCN(S(=O)(=O)c2cccnc2)CC1)N1CCN(c2ccccc2Cl)CC1 | – | inactive: 3.77%

Row | SMILES | Potency | cytoprotection (ATP increase)
23 | CC(C)(C)c1ccc(CN2N=C(/C=C/c3ccccc3)CCC2=O)cc1 | inconclusive: 5.62 µM [activator, single point] | –
24 | Cc1ccc(S(=O)(=O)NC(=O)NC(C)Cc2ccccc2)cc1 (centres undefined) | inconclusive: 0.1 µM [activator, full curve, poor fit] | –
25 | CN(C)S(=O)(=O)c1cc(NC(=O)COC(=O)C2CSC3(C)CCC(=O)N23)ccc1Cl (centres undefined) | inconclusive: 3.98 µM [activator, single point] | –
26 | COc1ccc([C@H]2C=C(C(=O)O)O[C@@H](OCCCCO)C2)cc1 | inconclusive: 5.62 µM [activator, single point] | –
27 | O=C(O)c1ccc2c(=O)[nH]c(CCl)nc2c1 | inconclusive: 5.62 µM [activator, single point] | –
28 | CC1C2NC(=O)N(Cc3ccccc3)C1(C)Oc1ccccc12 (centres undefined) | – | inactive: 11.3%
29 | Cc1c(CNC(=O)C2CC2)c(-n2cccc2)n(Cc2ccccc2)c1C | inconclusive: 35.5 µM [activator, single point] | –
30 | O=c1c2nncn2c2cccnc2n1CCNc1ncc(C(F)(F)F)cc1Cl | – | inactive: 18.8% [at 10 µM]
31 | O=c1cc(Cc2ccccc2)[nH]c(=S)[nH]1 | inconclusive: 0.1 µM [activator, full curve] | –
32 | O=C(CCN1C(=O)/C(=C/c2cccs2)SC1=S)NC1=NCCS1 | inconclusive: 1.26 µM [activator, single point] | –
33 | CC(C)CC1(C(=O)NCCN2CCOCC2)C=CCN1C(=O)c1ccccc1 (centres undefined) | inconclusive: 15.8 µM [activator, single point] | –
34 | O=C(N/N=C/c1c(F)c(F)c(F)c(F)c1F)c1cccc(S(=O)(=O)N2CCOCC2)c1 | inconclusive: 0.447 µM [activator, full curve, poor fit] | –
35 | Cc1cc(C)n(-c2ccc(C(F)(F)F)cc2[N+](=O)[O-])n1 | inconclusive: 31.6 µM [activator, single point] | –
36 | COc1ccccc1Oc1c(C)oc2c(CN3CCN(C)CC3)c(O)ccc2c1=O | – | inactive: -17.3%
37 | COc1ccc2[nH]cc(CCNc3cc(-c4ccccc4OC)ncn3)c2c1 | inconclusive: 25.1 µM [activator, single point] | –
38 | N#Cc1ccccc1OCC(=O)OCC(=O)N1CCN(C(=O)c2ccco2)CC1 | inconclusive: 0.112 µM [activator, partial curve, poor fit] | –
39 | CCC1OC(=O)C(C)[C@@H](O[C@H]2C[C@@](C)(OC)C(O)C(C)O2)C(C)[C@@H](O[C@@H]2OC(C)CC(N(C)C)C2O)[C@](C)(O)CC(C)/C(=N\OCOCCOC)[C@H](C)C(O)[C@]1(C)O (some centres undefined) | inconclusive: 0.708 µM [activator, single point] | –
40 | COc1ccc(NC(=O)c2cccc(-n3cnnn3)c2)cc1 | – | inactive: -23% [at 10 µM]
41 | CCN(C(=O)COc1ncnc2sccc12)c1ccccc1 | active: 1 µM | –
42 | CN(C)CCc1c[nH]c2ccc(CS(=O)(=O)N3CCCC3)cc12 | inconclusive: 0.1 µM [activator, full curve, poor fit] | –
43 | CC(C)C[C@H](NC(=O)c1[nH]cnc1C(=O)Nc1ccc(CNC(=O)OC(C)(C)C)cc1)C(=O)OC(C)(C)C | – | inactive: 9.81% [at 10 µM]
44 | CC1CCC2C(=O)OC(COc3ccc(C(C)(C)C)cc3)CN2C1c1ccc(Br)cc1 (centres undefined) | inconclusive: 0.0016 µM [activator, full curve, poor fit] | –

Row | SMILES | Potency | cytoprotection (ATP increase)
45 | N#Cc1cc(C(=O)c2cc(Cl)ccc2O)cn(-c2ccccc2)c1=O | – | inactive: -19% [at 10 µM]
46 | COc1ccc(CNC(=O)C/C(C)=N/NC(=O)Cc2ccc(OC)cc2)cc1 | – | inactive: 22.8% [at 10 µM]
47 | COc1cc(/C=C/C(=O)OCC(=O)N2CCN(S(=O)(=O)c3ccc(C)cc3C)CC2)ccc1O | – | inactive: 1.52% [at 10 µM]
48 | O=C(NC1CCCC1)c1cc(COc2ccc3ncccc3c2)on1 | inconclusive: 0.501 µM [activator, single point] | –
49 | CCOC(=O)c1ccc(NC=C2C(=O)OC3(CCCCC3)OC2=O)cc1 | – | inactive: 10.4%
50 | O=S(=O)(c1ccc(F)cc1)c1snnc1-c1ccccc1 | inconclusive: 22.4 µM [activator, single point] | –
51 | COCCn1c(=O)c(-c2ccccc2)nc2cnc(N3CCNCC3)nc21 | inconclusive: 0.447 µM [activator, full curve, poor fit] | –
52 | CN(C)C1C(=O)C(C(N)=O)C(=O)C2(O)C(=O)C3C(=O)c4c(O)ccc(Cl)c4C(O)C3CC12 (centres undefined) | inconclusive: 4.47 µM [activator, full curve, poor fit] | –
53 | C[C@@]12C(=O)OC(=O)[C@@]1(C)[C@H]1CC[C@@H]2O1 | inactive | –
54 | COc1ccc(OC)c(/C=C/c2c([N+](=O)[O-])c(=O)n(C)c(=O)n2C)c1 | inconclusive: 15.8 µM [activator, single point] | –
55 | Cc1ccc(CO)cc1 | – | inactive: -3.23%
56 | COc1ccccc1N1CCN(CC(=O)N(CC(C)C)c2c(N)n(CC(C)C)c(=O)[nH]c2=O)CC1 | inconclusive: 0.005 µM [activator, full curve, poor fit] | –
57 | CCCCCNC(=O)CCCCn1c(=O)[nH]c2cc(OCC)c(OCC)cc2c1=O | – | inactive: -13.1%
58 | CCOC(=O)c1ccccc1OCc1cc(/C=N/NC(=O)c2ccncc2)ccc1OC | inconclusive: 3.98 µM [activator, single point] | –
59 | COC(=O)C1=NN(c2cccc3ccccc23)C2C(=O)N(c3ccccc3OC)C(=O)C12 (centres undefined) | inconclusive: 0.562 µM [activator, single point] | –
60 | CC(=O)[C@H]1CC[C@H]2[C@@H]3C=CC4=CC(=O)CC[C@@]4(C)[C@H]3CC[C@]12C | inconclusive: 7.08 µM [activator, single point] | –
61 | COc1ccc(S(=O)(=O)N(CC(=O)NCc2cccnc2)c2ccc(F)cc2)cc1OC | inconclusive: 0.708 µM [activator, single point] | –
62 | Cc1noc(C)c1C(=O)N1CCC2(CCCN(c3ccccn3)C2)CC1 | inconclusive: 25.1 µM [activator, single point] | –
63 | CC1=CC(C)(C)[N+](C)(C)c2ccccc21 | inconclusive: 5.62 µM [activator, single point] | –
64 | COCC(=O)N1CCC[C@@]2(CCN(Cc3ccccc3OC)C2)C1 | inconclusive: 8.91 µM [activator, partial curve] | –

Quoted at random: 2 records from the list, in no set order.
Row | SMILES | Potency | cytoprotection (ATP increase)
60 | CC(=O)[C@H]1CC[C@H]2[C@@H]3C=CC4=CC(=O)CC[C@@]4(C)[C@H]3CC[C@]12C | inconclusive: 7.08 µM [activator, single point] | –
55 | Cc1ccc(CO)cc1 | – | inactive: -3.23%
